Reference: PubChem BioAssay AID602196 (INSERM, 2012)

- Purpose: 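Knock-downs that protect lung cancer cells from cisplatin or sensitise them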
- Cells: human A549 lung cancer cells
- Reagents: siRNA pair against human genes
- Time to read-out: 48 h transfection before cisplatin; time from cisplatin to read-out not stated
- Conditions: cisplatin at a dose killing half of control-siRNA cells; exact dose and duration not given
- Detection: 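Cisplatin cell death as a shift from the 50% death seen with control siRNA; siRNAs toxic or growth-blocking alone scored 0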
- Reading the numbers: two-siRNA summed score (-2 to +2): higher = both siRNAs protect from cisplatin killing; -2 means both sensitise; mean protection from cisplatin (shift in death) and protection from cisplatin (shift in death), siRNA C and protection from cisplatin (shift in death), siRNA D: higher = protection from cisplatin killing
- Rule for the call: 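siRNAs harmful alone (LDH or WST-1) get 0; others get +1 for less and -1 for more cisplatin killing; genes are active when the two siRNAs give the same sign, summing to ±2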
- Calls: active = both siRNAs shift cisplatin killing the same way; inactive = no consistent shift, or siRNA harmful alone
This is one part, drawn at random, of about 23,000 reagents tested. In the full data, 455 (2%) are marked active. 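Active includes both protection and sensitisation; some change values fall well beyond the stated -50 to +50 range.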 Not given: the amount of reagent.

gene knocked down | two-siRNA summed score (-2 to +2) | mean protection from cisplatin (shift in death) (%) | protection from cisplatin (shift in death), siRNA C (%) | protection from cisplatin (shift in death), siRNA D (%) | Outcome
LOC389143 | 0 | -1 | -4.6 | 2.6 | inactive
CCDC107 | 1 | 24.2 | 28.2 | 20.2 | inactive
RGS20 | -1 | -11.5 | 5.7 | -28.6 | inactive
CNTNAP3P2 | 0 | 2.7 | 12.6 | -7.2 | inactive
RAB9B | 0 | -11.5 | -16.4 | -6.5 | inactive
SPPL3 | 0 | 8.5 | 8.2 | 8.7 | inactive
HMGN5 | 0 | -7.2 | -8.8 | -5.7 | inactive
PHB1 | -1 | -25 | -60.1 | 10.2 | inactive
DIAPH2 | 0 | -9.4 | -12.7 | -6.1 | inactive
SLC39A9 | 0 | -4.5 | -0.5 | -8.5 | inactive
LOC388578 | 0 | 0.9 | 9.8 | -8 | inactive
CXCL10 | -1 | -5.5 | -24.7 | 13.6 | inactive
ATRAID | 0 | 3.3 | 2.2 | 4.4 | inactive
LOC347527 | 0 | 7.3 | -2.8 | 17.5 | inactive
ARL4C | 1 | 13.9 | 12.3 | 15.6 | inactive
SLC10A4 | -1 | 2 | 23 | -18.9 | inactive
LOC339583 | 0 | -3.6 | 4.6 | -11.8 | inactive
CHD1L | 0 | 4.3 | 0.2 | 8.4 | inactive
HNRNPU | 0 | -4.3 | -6.8 | -1.7 | inactive
GPC4 | 0 | 21.7 | 35.5 | 7.9 | inactive
FLJ13224 | 0 | 11 | 13.7 | 8.3 | inactive
LOC389756 | 0 | 0.5 | 4.6 | -3.6 | inactive
TPBG | 0 | 11.3 | 6.9 | 15.6 | inactive
DNASE2B | 0 | 8.2 | 8.9 | 7.5 | inactive
TMEM9B | 0 | -12.8 | -19.8 | -5.9 | inactive
LOC388467 | 0 | 13.4 | 13 | 13.9 | inactive
GRM7 | -1 | -10.1 | -15 | -5.1 | inactive
GUCA1A | -2 | -21.5 | -18.3 | -24.8 | active
CADM3 | 0 | 3.7 | 8.2 | -0.9 | inactive
RGN | 1 | 2.8 | -3.6 | 9.1 | inactive
PCDHB10 | 0 | 0.2 | 10.1 | -9.7 | inactive
C1orf87 | 0 | -5.7 | 3.2 | -14.6 | inactive
SSTR4 | 0 | -0.7 | 11.9 | -13.4 | inactive
SDHA | 0 | 2.8 | 20.6 | -15 | inactive
VDAC1 | -1 | -5.5 | -4.3 | -6.6 | inactive
DOK7 | 0 | 8.4 | -15.1 | 31.9 | inactive
RPL8 | 0 | 12.4 | 11.4 | 13.4 | inactive
CLMP | -1 | -8.4 | 9 | -25.8 | inactive
LOC440593 | 0 | 14.2 | 29.1 | -0.8 | inactive

Just “two-siRNA summed score (-2 to +2)”, for 6 of the entries above:
FLJ13224 = 0
LOC389756 = 0
TPBG = 0
DNASE2B = 0
TMEM9B = 0
LOC388467 = 0
